{
  "source": "patent US20100129805A1",
  "about": "“SLC1A1 ANTIPSYCHOTIC DRUG RESPONSE MARKERS” (priority 2006, published 2010)",
  "origin": "cited, not measured here",
  "key": {"[1]": {"system": "schizophrenic (SCZ) patients refractory or intolerant to typical antipsychotics", "conditions": "estimated; cited from earlier work"}, "EAAT3": {"system": "EAAT3", "conditions": "rat; cingulate cortex, infralimbic cortex, hippocampal CA1 & CA2, striatum; treatment over 6 months; cited from earlier work"}},
  "note": "At least one compound was matched to its structure with a doubt left.",
  "data": [
    {"smiles": "CN1CCN(C2=Nc3cc(Cl)ccc3Nc3ccccc32)CC1", "note": "[clozapine]", "values": [
      {"measurement": "share of patients for whom clozapine is an effective treatment", "setting": "[1]", "result": "at least 70%"},
      {"measurement": "gene expressions of EAAT3", "setting": "EAAT3", "result": "significantly downregulated"}
    ]}
  ]
}
